{
  "source": "paper PMC5844530",
  "about": "“Fosmetpantotenate (RE-024), a phosphopantothenate replacement therapy for pantothenate kinase-associated neurodegeneration: Mechanism of action and efficacy in nonclinical models” (PLoS ONE, 2018)",
  "tested_on": "PanK2 knockdown cells (acetylated tubulin)",
  "test": "Western blot analysis of acetylated tubulin",
  "assay_type": "cell-based, human",
  "conditions": "1 µM fosmetpantotenate, replicates 1-2",
  "procedure": "After incubation, the cells were lysed in RIPA buffer containing 300 mM NaCl, 10 mM Tris HCl pH 8.0, 10 mM KCl, 1 mM ethylenediaminetetraacetic acid (EDTA), 1% Nonidet-P40, 1% sodium deoxycholate, 0.1% SDS, 1 mM phenylmethanesulfonyl fluoride, and protease inhibitor cocktail (11697498001, Roche, Indianapolis, IN), and sonicated on ice with a Branson 450 sonicator through 2 cycles of ten 2s pulses (1 min pause between cycles). Total protein concentration was determined using a Bio-Rad Protein Assay (500–0006, Biorad, Hercules, CA). Cell extracts were subjected to sodium dodecyl sulfate polyacrylamide gel electrophoresis (SDS-PAGE) analysis (4–12%, NP0335BOX, Life Technologies, Great Island, NY) and transferred to a nitrocellulose membrane (10401396, Whatman, Maidstone, UK). Immunostaining was accomplished by overnight incubation with primary antibodies followed by 1 h of incubation with dye-conjugated secondary antibodies according to the manufacturer’s instructions. Protein detection was achieved using an Infrared Odyssey system (LiCor, Lincoln, NE). Densitometric analysis of western blots was performed using ImageJ software; the statistical significance was determined using a t-test. Actin was used as a normalization probe.",
  "note": "Values joined by “and” are separate entries in the source; they are usually repeats but may differ in a detail not shown here. Equal entries are not always repeated.",
  "data": [
    {"molecule": "COC(=O)CCNC(=O)[C@H](O)C(C)(C)COP(=O)(N[C@@H](C)C(=O)OC)Oc1ccccc1", "note": "(mixture of isomers) [Fosmetpantotenate]", "values": [
      {"measurement": "Actin (quantification)", "setting": "Experiment 1, DAY 1", "result": "5408.033 and 5159.033"},
      {"measurement": "Actin (quantification)", "setting": "Experiment 1, DAY 3", "result": "4810.74 and 4592.74"},
      {"measurement": "Actin (quantification)", "setting": "Experiment 1, DAY 5", "result": "4608.619 and 5049.962"},
      {"measurement": "Actin (quantification)", "setting": "Experiment 2, DAY 1", "result": "2488.811 and 2436.861"},
      {"measurement": "Actin (quantification)", "setting": "Experiment 2, DAY 3", "result": "2169.355 and 1618.134"},
      {"measurement": "Actin (quantification)", "setting": "Experiment 2, DAY 5", "result": "2220.104 and 2776.861"}
    ]}
  ]
}
